The supplement of paper PMC5949888
Most values lie at the floor of the assay. Slopes are relative: functional sequences can read slightly below zero.

test system: Saccharomyces cerevisiae PS128 hsf1 delta, HSF1(1-493) fusion; assay: growth estimate (transactivation domain function in HSF1 fusion, heat-shock survival) (a.u. (slope of normalised read count over time)); higher = stronger growth at 37°C, i.e. more transactivation activity; details: library: random library
Experimental: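 Random 60-nt DNA library encoding peptides of up to 20 aa, fused to the C-terminus of yeast HSF1 residues 1-493 (C-terminal TAD deleted) and expressed from the native HSF1 promoter on a CEN plasmid in hsf1-deleted S. cerevisiae PS128. Cells were selected at 37°C on -trp 5-FOA plates for 0, 2, 4, 6 and 8 days and amplicons were sequenced. Growth estimate is the slope of a robust linear fit of total-sum-normalised read counts (normalised to the first time point) over time, using at least 2 replicates. Sequences are classed functional (TAD activity) above a threshold of -0.13, set from stop-codon control sequences.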

| Substance | growth estimate |
| --- | --- |
| HRLKRWIFARSATAQRFS | < -0.25 |
| DSRLGRASNRELLEAHEKST | < -0.25 |
| VGSMTGWTASDLL | < -0.25 |
| EQFVAPCWAE | < -0.25 |
| GDNECAHYVCMFSVHHRRTA | < -0.25 |
| PILDPVGNSHLAA | < -0.25 |
| SHWNGWKSRKGRVVTRTGPA | < -0.25 |
| IPGAGWLERFAVTRGRPRPQ | < -0.25 |
| WPLAVKSSPNWGFKAVLTNI | < -0.25 |
| SIVVENLNEVTTQGGYSRSA | < -0.25 |
| VPKEYRRFPTLVMAKSGRPR | < -0.25 |
| ITVTRELHTKRWLMGRAALA | < -0.25 |
| SRGDILYRTSRTSRHPRSYP | < -0.25 |
| MTAGSASTRLINGSNGRYPS | -0.245 |
| SFPVIATIRIVGADGGGEG | < -0.25 |
| SSPSGRLPGCPCGRWITYI | < -0.25 |
| ITDQSLYRCGTVNAASARRS | < -0.25 |
| IEHFLSLLVKPF | < -0.25 |
| MSDNARIGSPRA | < -0.25 |
| SGGYRLWCTGCGPYLPTC | < -0.25 |
| LNRCAIE | < -0.25 |
| SRVLVPGQ | < -0.25 |
| HHP | < -0.25 |
| AGRGC | < -0.25 |

Reformatted with bars between the fields: entries from further up.
Substance | growth estimate
SRGDILYRTSRTSRHPRSYP | < -0.25
MTAGSASTRLINGSNGRYPS | -0.245

More records follow:

| Substance | growth estimate |
| --- | --- |
| SLMDYLSDHVHWSASRPVVP | < -0.25 |
| CKRHNNCPLP | < -0.25 |
| LPRGAWALS | < -0.25 |
| VRLPLRPSNMRVRRSETLVG | < -0.25 |
| SEASPSDGVTIPRPSLRIRA | < -0.25 |
| SPYGCLSERRSADLSIYNGW | < -0.25 |
| GYDTEPGLAT | < -0.25 |
| ADRRRLVILLQNLAWNACRH | < -0.25 |
| YFTRGSRPLKTLYASPWI | < -0.25 |
| CLELLREVVRKLSIPWDFGV | < -0.25 |
| QPGGSLVFSSWCLGQNPAVR | < -0.25 |
| VRHMQFRF | < -0.25 |
| VGKGLGNGVGLPWVS | < -0.25 |
| DRGSFIQKF | < -0.25 |
| KLLSDLTCLRLINGRPLKYN | < -0.25 |
| LVDDRSTNAYN | < -0.25 |
| NYCGRNMSTAFMQNLSTIAL | < -0.25 |
| RLPIS | < -0.25 |
| GQGGDRVYCCLLT | < -0.25 |
| EVLYRVGYKSIACVRRLPSY | < -0.25 |
| AISYTDANKPLSHGVRVFCA | < -0.25 |
| SSETRRRLPAVWLSPIATGG | < -0.25 |
| GAITRHSQR | -0.245 |
| TPCWLRIVFGS | < -0.25 |

| Substance | growth estimate |
| --- | --- |
| DDISC | < -0.25 |
| NTGIRVGWIKLMGKRGYAFG | < -0.25 |
| PEWSVLILNVRDQTMRFWYT | -0.167 |
| DEEGIL | < -0.25 |
| IYEEGVLATLT | < -0.25 |
| DHCLQNTRRGTGVRFRTFGG | < -0.25 |
| ERTIRLEVMRTYC | < -0.25 |
| YLCRMAESSKGAKASLHNCI | < -0.25 |
| TEQYYESRDHLSVPQMRAAA | < -0.25 |
| QVQPQMSTVAVVLVVATSHF | < -0.25 |
| MVPILLRGCQSGRDNCAELS | < -0.25 |
| RWWVYGESLILSERKRLAGV | < -0.25 |
| GCVQSF | < -0.25 |
| GREICS | < -0.25 |
| KSLGASCRTSRARNSQPK | < -0.25 |
| RQIAISDLRKTRCRIVASRM | < -0.25 |
| VLPEYVGGCKIPWVSAGRMD | < -0.25 |
| LDA | < -0.25 |
| CNGLESFARKFGENIAIVPK | < -0.25 |
| GIFRVYC | < -0.25 |
| ASEPRHSSTR | < -0.25 |
| WYRCHARLRISVCDLYKMCC | -0.0195 |
| LGIY | < -0.25 |
| SLQGGRV | < -0.25 |

| Substance | growth estimate |
| --- | --- |
| YLVVHPDSNPQH | < -0.25 |
| SVVITTTVMSTWRFHYLI | < -0.25 |
| TVTLSR | < -0.25 |
| SAQVSRGDAGGSWPTDAPSS | < -0.25 |
| PVV | < -0.25 |
| PNDWSRSA | < -0.25 |
| HTRHH | < -0.25 |
| RLQRSGRGIWE | < -0.25 |
| TRDLMVCKGAVR | < -0.25 |
| TQPRQSGRLGLIWDRVSGGD | < -0.25 |
| VKCVRAPPVPCMRYPPQTPA | < -0.25 |
| LVCRRPGNCGPDGRFGTSSH | < -0.25 |
| MNNVTVGKCRLRQTMGFPRT | < -0.25 |
| LTYAVVPA | < -0.25 |
| GVPLNAMVARKGNRRSLQRS | -0.237 |
| PGDDLGHTIRCVWIRRRAIC | < -0.25 |
| PVTVSAGPY | < -0.25 |
| TSPDQVHSPMRVV | < -0.25 |
| YML | < -0.25 |
| GQAAHEFAPSRLLPSSSGRQ | < -0.25 |
| CGRKVSRINVVSR | < -0.25 |
| WPRLQLVMLLSLWLCSLEVY | < -0.25 |
| IPTHSGAYPGAYEEALSR | < -0.25 |

Exported bar-delimited: entries from further up.
Substance | growth estimate
LDA | < -0.25
ASEPRHSSTR | < -0.25
PVV | < -0.25
